Source: patent US20020155519A1 (priority 1997, published 2002)
At least one structure is not confirmed: it was looked up by name or label, or the drawing left a doubt.

Tested on: human blood bacterium (HBB)
Assay type: cell-based
Procedure: Normally 1 ml of serum was added to 9 ml of medium. Larger flasks with a proportionately larger amount of serum and medium are used to produce bacteria in quantity. Modulators might be added to some flasks in 10× or higher concentration (corresponding to addition of 1 ml or less). When examining the effect of modulators, control flasks were prepared similarly without the addition of the modulator. Levels were observed microscopically (inverted phase microscope, observing the number of organisms per field crudely or by actual count) after incubation, typically at several points in time.
When multiple comparisons were done at once, they were done in 12 well or 24 well cell culture plates, most often the latter. With the latter, typically 1 ml of medium inoculated with serum is added to each well, with modulators added at 10× or higher concentration (0.1 ml or less). […]
These procedures are those known in the art and include uses of antibodies and DNA probes, Western and Southern blots, PCR and the diagnostic kits therefor. First, organisms can be quantified by culture. […] Quantification is used to follow the progress of treatment and to correlate HBB levels with specific disease syndromes. Quantification is used also for antibiotic sensitivity measurements, comparing the level of growth with antibiotic treatment to the level of growth without treatment. […]

Structure (SMILES) | observed antibiotic and antifungal sensitivities (outcome, number of isolates)
CC1COc2c(N3CCN(C)CC3)c(F)cc3c(=O)c(C(=O)O)cn1c23 (centres unmarked) [ofloxacin] | no effect (1 isolate)
CCC[C@@H]1C[C@@H](C(=O)N[C@@H]([C@H]2O[C@H](SC)[C@H](O)[C@@H](O)[C@H]2O)[C@H](C)Cl)N(C)C1 [clindamycin] | no effect (1 isolate)
